Data taken from patent US11160886B2 (BRACCO IMAGING SPA, priority 2016, dated 2021).

Columns and labels:
peptide synthesis = settings: whole synthesis
[1] = general procedure: peptide synthesis; 2-Chlorotrityl chloride resin (loading 1.22 mmol/g); HBTU/DIPEA; settings: whole synthesis, scale of the general procedure 200 mg resin

Substance: Glu-Urea-Lys-2-naphthyl-L-Ala-Amc-Cys
- isolated mass (peptide synthesis): 19.8 mg
- final HPLC purity ([1]; UV 230 nm): 99%
- isolated yield ([1]; total yield): 4%
